Results deposited as PubChem BioAssay AID652243 (Drosophila RNAi Screening Center, 2013).
Purpose: 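Fly regulators of androgen-dependent reporter output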 (primary screen). Cells: Drosophila S2R+ cells. Knock-down reagent: long dsRNA against Drosophila genes. Duration: 72 h (48 h, then 24 h hormone). Conditions: synthetic androgen R1881 at 10 nM for 24 h. Measured: 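Firefly light from an androgen-responsive reporter and Renilla control light per well, raw and unnormalised, for each of two replicates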. Direction: firefly reporter light: higher = more light from androgen-responsive reporter; Renilla control light: higher = more constitutive control signal (cell number, transfection). Rule for the call: 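Across duplicate plates, a knock-down whose log firefly/Renilla ratio shifted a set fold down or up from the GFP/LacZ control mean was a hit; the downward cut appears as both 1.5 and 3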. Meaning of the calls: active = hit: reporter lowered or raised; inactive = no hit.
The deposit covers about 24,000 reagents; shown is an unselected part of those that have a named target and a result. Of all reagents, 246 (1%) were called active. 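Plates not normalised; calls are printed but the firefly/Renilla ratio behind them is not deposited; fold cut for lowering reported inconsistently.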 The raw values are shown without normalisation. Reagents against one gene are numbered here. A plus sign joins genes that one reagent is predicted to hit. The record does not give: the amount of reagent.

gene | reagent | firefly reporter light, replicate 1 | firefly reporter light, replicate 2 | Renilla control light, replicate 1 | Renilla control light, replicate 2 | outcome
CG4741 | 1 | 2.41e5 | 2.34e5 | 1.49e6 | 1.70e6 | inactive
CG4741 | 2 | 9.50e5 | 1.03e6 | 1.49e6 | 1.67e6 | inactive
CG1146 | 1 | 7.14e5 | 5.16e5 | 1.12e6 | 8.95e5 | inactive
CG1146 | 2 | 8.72e5 | 9.04e5 | 9.54e5 | 8.59e5 | inactive
Abca3 | 1 | 2.42e5 | 1.91e5 | 6.83e5 | 5.64e5 | inactive
Rpt1 | 1 | 4.62e5 | 6.21e5 | 1.20e6 | 1.49e6 | inactive
sff | 1 | 55544 | 68402 | 8.79e5 | 5.58e5 | inactive
sff | 2 | – | – | – | – | inactive
sff | 3 | – | – | – | – | inactive
bic | 1 | 9.40e5 | 1.03e6 | 2.49e6 | 2.22e6 | inactive
bic | 2 | 1.00e6 | 9.18e5 | 1.08e6 | 1.24e6 | inactive
Rab7 | 1 | 1.17e5 | 74207 | 4.97e5 | 4.41e5 | inactive
rngo | 1 | 5.24e5 | 4.56e5 | 2.64e6 | 2.81e6 | inactive
rngo | 2 | 4.13e5 | 4.79e5 | 8.49e5 | 7.69e5 | inactive
Or23a | 1 | 1.14e6 | 1.09e6 | 1.76e6 | 1.85e6 | inactive
CG34249 (retired record) | 1 | 8.75e5 | 9.07e5 | 2.18e6 | 2.14e6 | inactive
for | 1 | 43965 | 44684 | 2.44e5 | 1.05e5 | inactive
for | 2 | 6.21e5 | 6.88e5 | 1.49e6 | 1.44e6 | inactive
for | 3 | 5.29e5 | 4.21e5 | 3.78e5 | 3.48e5 | inactive
for | 4 | 6.65e5 | 6.00e5 | 1.52e6 | 2.03e6 | inactive
for | 5 | – | – | – | – | inactive
CG3520 | 1 | 2.81e5 | 3.12e5 | 1.79e6 | 1.38e6 | inactive
CG34175 | 1 | 1.04e5 | 69038 | 1.07e6 | 7.98e5 | inactive
Crz | 1 | 1.61e5 | 1.94e5 | 2.13e6 | 2.27e6 | inactive
Uba1 | 1 | 1.21e6 | 1.23e6 | 1.29e6 | 1.42e6 | inactive
Uba1 | 2 | 3.01e5 | 5.24e5 | 9.37e5 | 1.67e6 | inactive
Ip259 | 1 | 9.80e5 | 8.36e5 | 1.52e6 | 1.74e6 | inactive
CG3335 | 1 | 1.47e5 | 1.66e5 | 2.64e6 | 1.86e6 | inactive
CG3335 | 2 | 7.56e5 | 7.06e5 | 1.54e6 | 1.64e6 | inactive
Lint-O | 1 | 1.19e5 | 1.66e5 | 3.43e6 | 3.23e6 | inactive
Lint-O | 2 | 6.85e5 | 5.08e5 | 6.06e5 | 5.55e5 | inactive
CG17036 | 1 | 2.14e5 | 2.86e5 | 2.09e6 | 2.15e6 | inactive
CG17036 | 2 | 2.75e5 | 2.37e5 | 7.06e5 | 5.97e5 | inactive
CG31231 | 1 | 1.39e5 | 79510 | 3.12e5 | 3.01e5 | inactive
CG31231 | 2 | 2.69e5 | 4.42e5 | 5.54e5 | 9.90e5 | inactive
CG10931 | 1 | 65264 | 42098 | 1.37e6 | 1.37e6 | inactive
mRpL11 | 1 | 1.80e5 | 1.45e5 | 2.48e6 | 2.09e6 | inactive

No new results follow: 9 of the entries above.
gene | reagent | firefly reporter light, replicate 1 | firefly reporter light, replicate 2 | Renilla control light, replicate 1 | Renilla control light, replicate 2 | outcome
CG4741 | 1 | 2.41e5 | 2.34e5 | 1.49e6 | 1.70e6 | inactive
CG4741 | 2 | 9.50e5 | 1.03e6 | 1.49e6 | 1.67e6 | inactive
CG1146 | 1 | 7.14e5 | 5.16e5 | 1.12e6 | 8.95e5 | inactive
CG1146 | 2 | 8.72e5 | 9.04e5 | 9.54e5 | 8.59e5 | inactive
Abca3 | 1 | 2.42e5 | 1.91e5 | 6.83e5 | 5.64e5 | inactive
Rpt1 | 1 | 4.62e5 | 6.21e5 | 1.20e6 | 1.49e6 | inactive
sff | 1 | 55544 | 68402 | 8.79e5 | 5.58e5 | inactive
sff | 2 | – | – | – | – | inactive
sff | 3 | – | – | – | – | inactive

The list goes on:
gene | reagent | firefly reporter light, replicate 1 | firefly reporter light, replicate 2 | Renilla control light, replicate 1 | Renilla control light, replicate 2 | outcome
CG8320 + ATPCL | 1 | 65584 | 87127 | 2.10e6 | 2.10e6 | active
CG9394 | 1 | 1.71e5 | 2.03e5 | 1.38e6 | 1.68e6 | inactive
CG17287 | 1 | 54819 | 55792 | 1.10e6 | 1.10e6 | inactive
CG6790 | 1 | 43447 | 40536 | 3.71e5 | 5.12e5 | inactive
Sas-4 | 1 | 66330 | 1.84e5 | 1.84e6 | 2.51e6 | inactive
CG12347 | 1 | 2.39e5 | 2.89e5 | 3.05e6 | 2.30e6 | inactive
CG11211 | 1 | 4.64e5 | 4.29e5 | 3.15e6 | 2.71e6 | inactive
Max | 1 | 58394 | 42092 | 8.83e5 | 6.21e5 | inactive
CG15602 | 1 | 4.02e5 | 4.35e5 | 3.99e6 | 2.89e6 | inactive
CG15602 | 2 | 7.36e5 | 7.52e5 | 5.78e5 | 6.67e5 | inactive
CG15019 | 1 | 1.37e5 | 1.80e5 | 2.21e6 | 2.28e6 | inactive
CG31606 | 1 | 79907 | 1.05e5 | 2.66e5 | 2.56e5 | inactive
CG6738 | 1 | 1.30e5 | 1.54e5 | 1.81e6 | 1.53e6 | inactive
CG6738 | 2 | 2.15e5 | 2.37e5 | 3.08e5 | 7.62e5 | inactive
S-Lap2 | 1 | 3.15e5 | 2.43e5 | 3.09e6 | 2.87e6 | inactive
Nprl3 | 1 | 8.86e5 | 1.03e6 | 1.55e6 | 2.00e6 | inactive
CG1304 | 1 | 3.19e5 | 2.21e5 | 9.16e5 | 7.14e5 | inactive
CG1304 | 2 | 7.91e5 | 8.41e5 | 1.61e6 | 1.97e6 | inactive
CG9747 | 1 | 3.12e5 | 3.27e5 | 3.37e6 | 4.08e6 | inactive
CG9747 | 2 | 7.03e5 | 7.13e5 | 9.64e5 | 9.78e5 | inactive
CG7924 | 1 | 8.63e5 | 1.29e6 | 8.66e5 | 2.03e6 | inactive
CG7924 | 2 | 6.15e5 | 9.05e5 | 8.68e5 | 7.66e5 | inactive
Mst57Dc | 1 | 2.97e5 | 3.45e5 | 3.27e6 | 2.86e6 | inactive
lncRNA:CR32027 | 1 | 2.03e5 | 4.17e5 | 94207 | 97095 | inactive
CG32095 | 1 | 5.02e5 | 5.87e5 | 1.85e6 | 1.48e6 | inactive
Elp3 | 1 | 89766 | 1.03e5 | 5.54e5 | 9.85e5 | inactive
Nubp2 | 1 | 2.74e5 | 2.07e5 | 1.92e6 | 2.14e6 | inactive
CG43737 | 1 | 5.25e5 | 5.92e5 | 2.74e6 | 3.42e6 | inactive
CG43737 | 2 | 4.30e5 | 5.23e5 | 3.79e6 | 3.76e6 | inactive
CG43737 | 3 | 5.61e5 | 6.08e5 | 7.52e5 | 7.95e5 | inactive
CG43737 | 4 | 4.09e5 | 3.71e5 | 1.72e6 | 1.29e6 | inactive
Mov10 | 1 | 1.09e6 | 1.00e6 | 1.76e6 | 1.72e6 | inactive
l(2)k10201 | 1 | 4.57e5 | 3.37e5 | 2.53e6 | 1.93e6 | inactive
l(2)k10201 | 2 | 4.22e5 | 2.10e5 | 1.83e6 | 1.56e6 | inactive
EMC4 | 1 | 3.95e5 | 2.73e5 | 2.84e6 | 1.80e6 | inactive
EMC4 | 2 | 3.68e5 | 2.95e5 | 7.85e5 | 7.85e5 | inactive
ihog | 1 | 7.31e5 | 9.96e5 | 2.07e6 | 2.40e6 | inactive
ihog | 2 | 3.70e5 | 6.57e5 | 4.58e5 | 4.58e5 | inactive
